PubChem BioAssay AID1259308 – NCATS | 2017
Here is a random part of about 59,000 deposited reagents. About 1,510 of them (2.6%) count as active. 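Calls use total luciferase alone and ignore viability, so some active siRNAs may act by altering cell number.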 Reagents against one gene are numbered here.

Purpose: 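Candidate targets for better recombinant protein yield in mammalian cells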 (primary screen)
Cell system: human HEK293 embryonic kidney cells stably expressing firefly luciferase (HEK-CMV-Luc2-Hygro)
Knock-down reagent: single siRNA against human genes, 0.8 pmol siRNA per well
Duration: 72 h
Read-out: 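Reporter luminescence and viable-cell signal on separate replicate plates, given as percent of non-targeting control and median/MAD z-scores, plus per-cell luciferase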
Direction: total luciferase, z-score and total luciferase, % of control: higher = more reporter protein produced; luciferase per cell, z-score: higher = more reporter output per viable cell; viable cells, % of control: higher = more viable cells
Call rule: 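An siRNA counts as active if its total luciferase robust z-score exceeds 3; genes with two or more such siRNAs out of three were retested with fresh siRNAs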
Meaning of the calls: active = raised luciferase; inactive = no rise

gene,siRNA no.,"total luciferase, z-score","total luciferase, % of control","luciferase per cell, z-score","viable cells, % of control",outcome
"SPHKAP (SPHK1 interactor, AKAP domain containing)",1,-2.11,40,-0.866,56.1,inactive
"SPHKAP (SPHK1 interactor, AKAP domain containing)",2,0.616,94.1,0.586,90.2,inactive
"SPHKAP (SPHK1 interactor, AKAP domain containing)",3,0.81,98,0.489,96.3,inactive
PHF23 (PHD finger protein 23),1,0.246,86.8,-0.133,100,inactive
PHF23 (PHD finger protein 23),2,-0.851,65,-1.3,102,inactive
PHF23 (PHD finger protein 23),3,0.352,88.9,-0.749,121,inactive
NCOA2 (nuclear receptor coactivator 2),1,-0.319,75.5,-0.582,98.4,inactive
NCOA2 (nuclear receptor coactivator 2),2,-0.192,78.1,0.00721,87.1,inactive
NCOA2 (nuclear receptor coactivator 2),3,-0.639,69.2,-0.865,97.1,inactive
ARHGDIB (Rho GDP dissociation inhibitor beta),1,1.79,117,1.56,86.9,inactive
ARHGDIB (Rho GDP dissociation inhibitor beta),2,-0.0533,80.8,-0.874,114,inactive
ARHGDIB (Rho GDP dissociation inhibitor beta),3,-0.97,62.6,-0.884,88.3,inactive
KCNMB4,1,1.92,120,1.16,98.8,inactive
KCNMB4,2,2.41,130,2.13,82.8,inactive
KCNMB4,3,-1.39,54.3,-0.33,66.2,inactive
CGGBP1 (CGG triplet repeat binding protein 1),1,0.117,84.2,1.02,72,inactive
CGGBP1 (CGG triplet repeat binding protein 1),2,-2.08,40.5,-1.63,69.6,inactive
CGGBP1 (CGG triplet repeat binding protein 1),3,-1.23,57.4,-0.879,80.9,inactive
KLHL12 (kelch like family member 12),1,0.48,91.4,0.876,81.1,inactive
KLHL12 (kelch like family member 12),2,-0.181,78.3,1.31,61.9,inactive
KLHL12 (kelch like family member 12),3,-0.952,63,-0.758,85.9,inactive
GTSCR1,1,-0.286,76.2,-0.97,110,inactive
GTSCR1,2,0.596,93.7,0.888,82.9,inactive
GTSCR1,3,0.000427,81.9,-0.0422,92.5,inactive
PPP2CA (protein phosphatase 2 catalytic subunit alpha),1,2.17,125,1.74,88.3,inactive
PPP2CA (protein phosphatase 2 catalytic subunit alpha),2,1.13,104,0.431,104,inactive
PPP2CA (protein phosphatase 2 catalytic subunit alpha),3,1.58,113,1.12,94.3,inactive
TBC1D16 (TBC1 domain family member 16),1,1.94,120,1.5,90.7,inactive
TBC1D16 (TBC1 domain family member 16),2,1.02,102,0.302,105,inactive
TBC1D16 (TBC1 domain family member 16),3,-0.345,75,-0.322,91.3,inactive
CD200R1L (CD200 receptor 1 like),1,0.565,93.1,1.45,70.9,inactive
CD200R1L (CD200 receptor 1 like),2,-0.593,70.1,0.0639,77,inactive
CD200R1L (CD200 receptor 1 like),3,-0.895,64.1,-0.701,86.1,inactive
TRABD2B (TraB domain containing 2B),1,0.67,95.2,1.36,74.3,inactive
TRABD2B (TraB domain containing 2B),2,-1.99,42.2,-1.94,78.7,inactive
TRABD2B (TraB domain containing 2B),3,2.04,122,1.05,104,inactive
TRMT6 (tRNA methyltransferase 6 non-catalytic subunit),1,1.84,118,0.821,107,inactive
TRMT6 (tRNA methyltransferase 6 non-catalytic subunit),2,1.1,104,0.401,104,inactive
TRMT6 (tRNA methyltransferase 6 non-catalytic subunit),3,-0.278,76.4,-0.252,91.2,inactive
SAXO1 (stabilizer of axonemal microtubules 1),1,-0.467,72.6,-0.327,88.4,inactive
SAXO1 (stabilizer of axonemal microtubules 1),2,-1.07,60.6,-0.516,77.6,inactive
SAXO1 (stabilizer of axonemal microtubules 1),3,-0.273,76.5,-0.123,88.3,inactive
PEX16 (peroxisomal biogenesis factor 16),1,0.105,84,0.179,89.5,inactive
PEX16 (peroxisomal biogenesis factor 16),2,-0.216,77.6,-0.519,99.4,inactive
PEX16 (peroxisomal biogenesis factor 16),3,-0.283,76.3,-0.0216,85.7,inactive
IRGC (immunity related GTPase cinema),1,1.74,117,1.27,93.2,inactive
IRGC (immunity related GTPase cinema),2,-0.478,72.4,-0.545,93.4,inactive
IRGC (immunity related GTPase cinema),3,0.861,99,0.781,90.1,inactive
GARIN6 (golgi associated RAB2 interactor family member 6),1,1.62,114,2.5,66,inactive
GARIN6 (golgi associated RAB2 interactor family member 6),2,-1.27,56.6,0.729,52.2,inactive
GARIN6 (golgi associated RAB2 interactor family member 6),3,0.014,82.2,-0.321,99.9,inactive
OR2B3 (olfactory receptor family 2 subfamily B member 3),1,1.97,121,2.14,77.1,inactive
OR2B3 (olfactory receptor family 2 subfamily B member 3),2,-0.04,81.1,-0.126,93.7,inactive
OR2B3 (olfactory receptor family 2 subfamily B member 3),3,-0.035,81.2,-0.0828,92.7,inactive
HSBP1 (heat shock factor binding protein 1),1,1.24,107,1.06,90.2,inactive
HSBP1 (heat shock factor binding protein 1),2,0.183,85.5,-0.173,100,inactive
HSBP1 (heat shock factor binding protein 1),3,0.198,85.8,0.373,86.9,inactive

Part of the list above, set out differently:
IRGC (immunity related GTPase cinema) #3
- total luciferase, z-score: 0.861
- total luciferase, % of control: 99
- luciferase per cell, z-score: 0.781
- viable cells, % of control: 90.1
- outcome: inactive

GARIN6 (golgi associated RAB2 interactor family member 6) #1
- total luciferase, z-score: 1.62
- total luciferase, % of control: 114
- luciferase per cell, z-score: 2.5
- viable cells, % of control: 66
- outcome: inactive

GARIN6 (golgi associated RAB2 interactor family member 6) #2
- total luciferase, z-score: -1.27
- total luciferase, % of control: 56.6
- luciferase per cell, z-score: 0.729
- viable cells, % of control: 52.2
- outcome: inactive

GARIN6 (golgi associated RAB2 interactor family member 6) #3
- total luciferase, z-score: 0.014
- total luciferase, % of control: 82.2
- luciferase per cell, z-score: -0.321
- viable cells, % of control: 99.9
- outcome: inactive

OR2B3 (olfactory receptor family 2 subfamily B member 3) #1
- total luciferase, z-score: 1.97
- total luciferase, % of control: 121
- luciferase per cell, z-score: 2.14
- viable cells, % of control: 77.1
- outcome: inactive

OR2B3 (olfactory receptor family 2 subfamily B member 3) #2
- total luciferase, z-score: -0.04
- total luciferase, % of control: 81.1
- luciferase per cell, z-score: -0.126
- viable cells, % of control: 93.7
- outcome: inactive
